PubChem BioAssay AID1259405 – NCATS – 2018

Test: 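Mouse-designed siRNAs used to find CHO productivity engineering targets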 (primary screen)
Cells: Chinese hamster CHO-K1 ovary cells with stable secreted eGFP expression
Knock-down reagent: single siRNA against mouse genes, 0.8 pmol siRNA per well (2 µl of 400 nM stock)
Duration: 3 days
Measured: 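Per-well intracellular GFP measured by laser scanning cytometry, plus viability from ATP luminescence, each relative to plate median of non-targeting control wells, in %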
Scale: GFP, % of control: higher = more GFP per well, higher productivity; viability (ATP), % of control: higher = more viable cells (more ATP)
Call rule: 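Called active when intracellular GFP, relative to negative control, is at or above 120%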
In all, the deposit lists about 50,000 reagents; below is an unselected part. About 4,000 of all reagents (8%) count as active. 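Mouse siRNA library applied to hamster cells; one well for each siRNA.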 A number with no mark means an inactive call. Reagents against one gene are numbered here.

target gene,reagent,"GFP, % of control","viability (ATP), % of control"
Zmat3 (GeneID 22401),1,53.4,74
Zmat3 (GeneID 22401),2,88.2,79.9
Zmat3 (GeneID 22401),3,75.1,77.7
Zfp109 (GeneID 56869),1,89.1,84
Zfp109 (GeneID 56869),2,64.2,77.8
Zfp109 (GeneID 56869),3,75.7,77.3
Eif4g1 (GeneID 208643),1,45.7,30.7
Eif4g1 (GeneID 208643),2,82.1,71.6
Eif4g1 (GeneID 208643),3,106,72.3
Htr2c (GeneID 15560),1,71.5,63.1
Htr2c (GeneID 15560),2,81.3,73.5
Htr2c (GeneID 15560),3,71.4,65.8

3 successive records already listed, quoted:
target gene,reagent,"GFP, % of control","viability (ATP), % of control"
Eif4g1 (GeneID 208643),2,82.1,71.6
Eif4g1 (GeneID 208643),3,106,72.3
Htr2c (GeneID 15560),1,71.5,63.1

Next reagents follow.
target gene,reagent,"GFP, % of control","viability (ATP), % of control"
Klhdc7a (GeneID 242721),1,44.8,35.5
Klhdc7a (GeneID 242721),2,71.6,72.5
Klhdc7a (GeneID 242721),3,58.8,66.9
Lpl (GeneID 16956),1,100,132
Lpl (GeneID 16956),2,119,171
Lpl (GeneID 16956),3,66.8,84.9
Mims1 (GeneID 108654),1,40.3,90.6
Mims1 (GeneID 108654),2,99.8,100
Mims1 (GeneID 108654),3,113,159
Cct8 (GeneID 12469),1,41.7,30.3
Cct8 (GeneID 12469),2,90.8,83.9
Cct8 (GeneID 12469),3,57.2,50
Pigv (GeneID 230801),1,88.7,93.9
Pigv (GeneID 230801),2,96.5,95.2
Pigv (GeneID 230801),3,18.9,23.1
Cabp4 (GeneID 73660),1,75.2,80.3
Cabp4 (GeneID 73660),2,119,75.6
Snai1 (GeneID 20613),1,33.8,90.3
Snai1 (GeneID 20613),2,66.5,85.7
Cox7a2 (GeneID 12866),1,161 (active),126
Cox7a2 (GeneID 12866),2,88.1,63.7
Cox7a2 (GeneID 12866),3,81.7,71.6
